{"source": "paper PMC3460623", "binders": {"B1": {"name": "Phospholipase C γ1 (PLCγ1), endogenous (enzyme, UniProt P19174 1-1290)", "chain": "MAGAASPCANGCGPGAPSDAEVLHLCRSLEVGTVMTLFYSKKSQRPERKTFQVKLETRQITWSRGADKIEGAIDIREIKEIRPGKTSRDFDRYQEDPAFRPDQSHCFVILYGMEFRLKTLSLQATSEDEVNMWIKGLTWLMEDTLQAPTPLQIERWLRKQFYSVDRNREDRISAKDLKNMLSQVNYRVPNMRFLRERLTDLEQRSGDITYGQFAQLYRSLMYSAQKTMDLPFLEASTLRAGERPELCRVSLPEFQQFLLDYQGELWAVDRLQVQEFMLSFLRDPLREIEEPYFFLDEFVTFLFSKENSVWNSQLDAVCPDTMNNPLSHYWISSSHNTYLTGDQFSSESSLEAYARCLRMGCRCIELDCWDGPDGMPVIYHGHTLTTKIKFSDVLHTIKEHAFVASEYPVILSIEDHCSIAQQRNMAQYFKKVLGDTLLTKPVEISADGLPSPNQLKRKILIKHKKLAEGSAYEEVPTSMMYSENDISNSIKNGILYLEDPVNHEWYPHYFVLTSSKIYYSEETSSDQGNEDEEEPKEVSSSTELHSNEKWFHGKLGAGRDGRHIAERLLTEYCIETGAPDGSFLVRESETFVGDYTLSFWRNGKVQHCRIHSRQDAGTPKFFLTDNLVFDSLYDLITHYQQVPLRCNEFEMRLSEPVPQTNAHESKEWYHASLTRAQAEHMLMRVPRDGAFLVRKRNEPNSYAISFRAEGKIKHCRVQQEGQTVMLGNSEFDSLVDLISYYEKHPLYRKMKLRYPINEEALEKIGTAEPDYGALYEGRNPGFYVEANPMPTFKCAVKALFDYKAQREDELTFIKSAIIQNVEKQEGGWWRGDYGGKKQLWFPSNYVEEMVNPVALEPEREHLDENSPLGDLLRGVLDVPACQIAIRPEGKNNRLFVFSISMASVAHWSLDVAADSQEELQDWVKKIREVAQTADARLTEGKIMERRKKIALELSELVVYCRPVPFDEEKIGTERACYRDMSSFPETKAEKYVNKAKGKKFLQYNRLQLSRIYPKGQRLDSSNYDPLPMWICGSQLVALNFQTPDKPMQMNQALFMTGRHCGYVLQPSTMRDEAFDPFDKSSLRGLEPCAISIEVLGARHLPKNGRGIVCPFVEIEVAGAEYDSTKQKTEFVVDNGLNPVWPAKPFHFQISNPEFAFLRFVVYEEDMFSDQNFLAQATFPVKGLKTGYRAVPLKNNYSEDLELASLLIKIDIFPAKENGDLSPFSGTSLRERGSDASGQLFHGRAREGSFESRYQQPFEDFRISQEHLADHFDSRERRAPRRTRVNGDNRL"}}, "target": "GST fusion of the cytoplasmic domain of K15-P, wild type (Kaposi's Sarcoma Herpesvirus (KSHV, HHV8))", "assay": "pull-down; GST fusion proteins on glutathione sepharose beads incubated with cleared HEK293T lysates (TBS-T) overnight at 4°C; bound endogenous PLCγ1 detected by Western blot; only the target purified", "note": "These are yes or no findings as the source states them, for the method shown. Binding seen in cells or lysates may run through a third protein. Binding can be weak; no strength is given.", "data": [{"binder": "B1", "values": [{"measurement": "binding", "result": "binds"}]}]}
